Test results published in patent US20070269808A1 (published 2007).
No constants are given. Whether binding was seen depends on the method and setting. Binding seen in cells or lysates may run through a third protein. Some binding calls cover weakened binding; strength is not graded here. Where a sequence is shown, tags or fusion partners need not be part of it.

What was measured:
[1] = biological target: T1, wingless (Wg) protein (Drosophila) (UniProt P09615); assay: pull-down, gel electrophoresis and fluorography
T1 sequence (looked up): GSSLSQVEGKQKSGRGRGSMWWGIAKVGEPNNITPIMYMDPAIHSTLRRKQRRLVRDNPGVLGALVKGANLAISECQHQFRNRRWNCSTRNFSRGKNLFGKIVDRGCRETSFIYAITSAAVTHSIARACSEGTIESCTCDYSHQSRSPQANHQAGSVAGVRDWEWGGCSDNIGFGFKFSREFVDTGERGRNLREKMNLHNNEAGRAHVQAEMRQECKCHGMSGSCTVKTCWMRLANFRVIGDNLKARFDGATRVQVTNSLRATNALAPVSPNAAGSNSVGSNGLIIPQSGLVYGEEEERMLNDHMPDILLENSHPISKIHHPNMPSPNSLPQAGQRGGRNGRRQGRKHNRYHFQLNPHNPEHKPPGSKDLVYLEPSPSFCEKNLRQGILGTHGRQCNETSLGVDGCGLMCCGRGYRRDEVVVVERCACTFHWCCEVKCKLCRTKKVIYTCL

[2] = biological target: T1, wingless (Wg) protein (Drosophila); assay: pull-down from 35S-labeled HS-wg/S2 conditioned medium with sepharose-Protein A beads, gel electrophoresis and fluorography
[3] = biological target: T1, wingless (Wg) protein (Drosophila); assay: pull-down and fluorography, figure legend of FIG. 6

- binding [1]: binds
- binding [2]: binds
- binding [3]: binds
B1: Dfz2/IgG fusion protein (cysteine-rich amino-terminal domain of Dfz2 linked to the constant domain of human IgG) (Fc fusion, not shown: a dimerising Fc or GST)
chain: DGPLHSADHGMGGMGMGGHGLDASPAPGYGVPAIPKDPNLRCEEITIPMCRGIGYNMTSFPNEMNHETQDEAGLEVHQFWPLVEIKCSPDLKFFLCSMYTPICLEDYHKPLPVCRSVCERARSGCAPIMQQYSFEWPERMACEHLPLHGDPDNLCMEQ
